Results on one molecule are retold here after US20220235136A1, “METHODS AND COMPOSITIONS FOR TREATING A DISEASE OR DISORDER” (YALE UNIVERSITY, priority 2019, published 2022).

The chains behind the UniProt entries cited, without tags or fusion partners. Where a name states a change or a piece, a line headed by the entry shows the natural chain unless it says otherwise.
UniProt Q9NPY3: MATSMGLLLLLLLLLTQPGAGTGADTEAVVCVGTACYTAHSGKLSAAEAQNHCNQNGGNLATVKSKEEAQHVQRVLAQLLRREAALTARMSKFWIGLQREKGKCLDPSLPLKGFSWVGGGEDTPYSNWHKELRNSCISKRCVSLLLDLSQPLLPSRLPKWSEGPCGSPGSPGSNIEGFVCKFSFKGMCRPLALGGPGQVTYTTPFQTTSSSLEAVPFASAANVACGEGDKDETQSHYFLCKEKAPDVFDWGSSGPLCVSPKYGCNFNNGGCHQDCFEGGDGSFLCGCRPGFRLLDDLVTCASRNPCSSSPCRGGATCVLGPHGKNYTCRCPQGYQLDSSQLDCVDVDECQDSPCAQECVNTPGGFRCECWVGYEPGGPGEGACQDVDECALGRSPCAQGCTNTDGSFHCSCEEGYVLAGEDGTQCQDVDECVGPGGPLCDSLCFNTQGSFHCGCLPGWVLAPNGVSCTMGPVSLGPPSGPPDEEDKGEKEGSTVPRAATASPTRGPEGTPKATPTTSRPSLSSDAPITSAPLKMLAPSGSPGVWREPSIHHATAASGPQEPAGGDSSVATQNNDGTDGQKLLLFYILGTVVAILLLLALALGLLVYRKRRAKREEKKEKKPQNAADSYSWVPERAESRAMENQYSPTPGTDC

No constants are given. Whether binding was seen depends on the method and setting. In cells and extracts the contact can be indirect. Some results given as binding are weak or reduced against the parent protein; the word gives no strength.

In experiment [1] the target is human CD93 on cells (CD93-transfected HEK293T cells; endogenous on HUVEC cells) (human) (UniProt Q9NPY3). As to the kind of experiment: co-immunoprecipitation from HUVEC lysate with a CD93 mAb, blot (FIG. 4D).
For experiment [2] the target is unchanged. As to the kind of experiment: co-immunoprecipitation from HUVEC cell lysate with CD93 mAb, blot for IGFBP7.

B1: human IGFBP7 (expression construct in the GSRA library; endogenous in HUVEC lysate; exogenous IGFBP7 protein) (ligand)
chain: SSSDTCGPCEPASCPPLPPLGCLLGETRDACGCCPMCARGEGEPCGGGGAGRGYCAPGMECVKSRKRRKGKAGAAAGGPGVSGVCVCKSRYPVCGSDGTTYPSGCQLRAASQRAESRGEKAITQVSKGTCEQGPSIVTPPKDIWNVTGAQVYLSCEVIGIPTPVLIWNKVKRGHYGVQRTELLPGDRDNLAIQTRGGPEKHEVTGWVLVSPLSKEDAGEYECHASNSQGQASASAKITVVDALHEIPVKKGEGAEL
For the molecule B1, the binding entry in experiment [1] and in experiment [2] was “binds” each time.
